Experimental data as given in patent publication US20230192860A1.
Results are given in words; binding and its absence hold for the method and conditions named. Some results given as binding are weak or reduced against the parent protein; the word gives no strength.

How the values were obtained:
[1] = molecular target: T1, hVISTA IgV domain (co-crystallised) (human) (UniProt Q9H7M9); assay: structure (FIG. 18E)
T1 sequence: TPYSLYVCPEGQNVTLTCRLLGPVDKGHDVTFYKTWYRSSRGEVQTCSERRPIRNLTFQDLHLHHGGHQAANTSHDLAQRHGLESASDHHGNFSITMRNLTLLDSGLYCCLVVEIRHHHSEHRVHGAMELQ

[2] = molecular target: monovalent hVISTA-ECD (amino acids 32-193 of SEQ ID NO: 1 with a 7xHis tail) (human) (UniProt Q9H7M9); assay: SPR 37C, Ab on Protein A, 100 nM hVISTA-ECD, pH 7.4, 6.7 and 6.0

B1: VISTA.5 (mAb1) (antibody, V domains shown)
VH: AVQLQESGPGLVRPSQSLSLTCTVTDYSITSDYAWNWIRQFPGSKLEWLGFIGYSGNTNYNPSLESRISITRHTSKNQFFLHLNSMTTEDTATYYCARSLYGGSHWYFDVWGAGTTVTVSS
VL: DIVLTQSPASLAVSLGQRATISCRGSESVEYYGTILMQWYQQKPGQPPKLLIYGASNVESGVPARFSGSGSGTDFSLNIHPVEEDDIAMYFCQQSRKVPWTFGGGTKLEIK
B1 was tested, and the binding [1] was “binds” and the binding [2] was “binds”.
